The values that follow come from paper PMC6090690.

Chains of the proteins cited; added tags and fusions are not shown.
UniProt P27986: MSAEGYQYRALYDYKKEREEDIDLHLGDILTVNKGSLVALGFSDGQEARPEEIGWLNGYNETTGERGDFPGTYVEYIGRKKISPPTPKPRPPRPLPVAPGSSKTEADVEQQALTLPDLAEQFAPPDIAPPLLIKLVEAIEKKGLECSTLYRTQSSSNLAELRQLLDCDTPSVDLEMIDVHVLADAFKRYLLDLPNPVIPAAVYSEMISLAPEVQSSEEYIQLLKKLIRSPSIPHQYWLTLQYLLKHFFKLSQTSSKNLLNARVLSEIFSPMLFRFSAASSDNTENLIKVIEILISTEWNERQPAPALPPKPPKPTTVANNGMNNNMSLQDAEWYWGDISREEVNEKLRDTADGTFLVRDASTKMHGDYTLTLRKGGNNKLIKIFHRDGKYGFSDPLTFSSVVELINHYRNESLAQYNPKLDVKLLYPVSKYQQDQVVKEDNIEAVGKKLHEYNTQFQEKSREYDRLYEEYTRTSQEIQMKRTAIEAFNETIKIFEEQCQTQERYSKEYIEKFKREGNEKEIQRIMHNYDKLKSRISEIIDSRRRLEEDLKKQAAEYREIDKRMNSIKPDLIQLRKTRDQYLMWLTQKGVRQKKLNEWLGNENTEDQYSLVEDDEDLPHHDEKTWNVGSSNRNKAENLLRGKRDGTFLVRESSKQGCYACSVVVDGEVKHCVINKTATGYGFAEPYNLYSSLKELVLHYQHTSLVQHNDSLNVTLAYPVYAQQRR

For this assay, the target named is p85α subunit of PI3K (PI3Kp85α) (human (endogenous in A549 and H1299)) (UniProt P27986). Nature of the assay: co-IP; lysates of A549 and H1299 cells; performed as described previously (ref. 28); the paper does not tell which protein was precipitated.

Results are given in words; binding and its absence hold for the method and conditions named. In cells and extracts the contact can be indirect. Some binding calls cover weakened binding; strength is not graded here.

B1: Makorin RING zinc finger-2 (MKRN2) (protein, UniProt Q9H000 1-416)
chain: MSTKQITCRYFMHGVCREGSQCLFSHDLANSKPSTICKYYQKGYCAYGTRCRYDHTRPSAAAGGAVGTMAHSVPSPAFHSPHPPSEVTASIVKTNSHEPGKREKRTLVLRDRNLSGMAERKTQPSMVSNPGSCSDPQPSPEMKPHSYLDAIRSGLDDVEASSSYSNEQQLCPYAAAGECRFGDACVYLHGEVCEICRLQVLHPFDPEQRKAHEKICMLTFEHEMEKAFAFQASQDKVCSICMEVILEKASASERRFGILSNCNHTYCLSCIRQWRCAKQFENPIIKSCPECRVISEFVIPSVYWVEDQNKKNELIEAFKQGMGKKACKYFEQGKGTCPFGSKCLYRHAYPDGRLAEPEKPRKQLSSQGTVRFFNSVRLWDFIENRESRHVPNNEDVDMTELGDLFMHLSGVESSEP
With B1, the binding result is reported as “binds”.
